These results are taken from publication PMC7038928.

Protein sequences, listed by entry. Tags and fused reporters are not part of them.
UniProt Q86U44: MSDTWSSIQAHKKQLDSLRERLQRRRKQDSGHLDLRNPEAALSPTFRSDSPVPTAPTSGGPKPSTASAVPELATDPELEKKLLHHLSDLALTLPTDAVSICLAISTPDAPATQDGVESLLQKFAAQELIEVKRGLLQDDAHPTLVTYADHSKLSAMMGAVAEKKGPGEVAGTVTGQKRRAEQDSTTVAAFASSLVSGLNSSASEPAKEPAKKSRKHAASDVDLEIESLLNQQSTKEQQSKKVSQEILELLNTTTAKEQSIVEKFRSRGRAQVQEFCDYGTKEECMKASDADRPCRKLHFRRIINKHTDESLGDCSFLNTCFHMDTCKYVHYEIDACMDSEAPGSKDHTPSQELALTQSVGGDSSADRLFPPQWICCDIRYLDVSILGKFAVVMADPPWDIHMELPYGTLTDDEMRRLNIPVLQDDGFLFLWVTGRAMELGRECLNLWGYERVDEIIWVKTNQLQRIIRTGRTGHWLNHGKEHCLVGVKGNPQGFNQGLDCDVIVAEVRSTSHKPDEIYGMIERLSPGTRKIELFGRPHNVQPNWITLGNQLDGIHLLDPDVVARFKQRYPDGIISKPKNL

Holding throughout (experiment): co-IP; Flag-tagged RBP precipitated with FLAG beads from sonicated RIPA lysate, overnight at 4°C; washed three times in E1A lysis buffer (250 mM NaCl, 50 mM HEPES pH 7.5, 0.1% NP-40, 5 mM EDTA); blots for METTL3, METTL14, FTO, ALKBH5; with and without RNase treatment (TRA2A, CAPRIN1)
For assay [1], the target named is T1, CAPRIN1 (human (cDNA from HEK293T)) (UniProt Q14444).
T1 sequence: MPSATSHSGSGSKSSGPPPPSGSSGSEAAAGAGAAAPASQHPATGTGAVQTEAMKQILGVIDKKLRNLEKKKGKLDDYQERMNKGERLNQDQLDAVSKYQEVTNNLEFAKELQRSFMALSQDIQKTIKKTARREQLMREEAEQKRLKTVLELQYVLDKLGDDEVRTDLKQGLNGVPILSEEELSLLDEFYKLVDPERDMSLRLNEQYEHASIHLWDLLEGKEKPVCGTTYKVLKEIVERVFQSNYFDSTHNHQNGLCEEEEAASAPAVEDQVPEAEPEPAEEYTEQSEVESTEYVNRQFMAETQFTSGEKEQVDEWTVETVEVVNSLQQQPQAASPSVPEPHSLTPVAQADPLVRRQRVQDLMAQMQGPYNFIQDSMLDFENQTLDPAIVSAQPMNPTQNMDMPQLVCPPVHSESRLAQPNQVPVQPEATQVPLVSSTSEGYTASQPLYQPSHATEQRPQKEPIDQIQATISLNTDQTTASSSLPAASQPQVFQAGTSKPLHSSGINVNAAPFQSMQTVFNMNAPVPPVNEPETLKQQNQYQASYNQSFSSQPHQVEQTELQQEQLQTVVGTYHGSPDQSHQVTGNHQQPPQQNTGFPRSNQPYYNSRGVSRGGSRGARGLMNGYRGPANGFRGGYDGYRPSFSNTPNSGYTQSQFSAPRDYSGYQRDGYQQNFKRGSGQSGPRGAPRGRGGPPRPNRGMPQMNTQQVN

For assay [2], the target named is T2, TRA2A (human (cDNA from HEK293T)) (UniProt Q13595).
T2 sequence: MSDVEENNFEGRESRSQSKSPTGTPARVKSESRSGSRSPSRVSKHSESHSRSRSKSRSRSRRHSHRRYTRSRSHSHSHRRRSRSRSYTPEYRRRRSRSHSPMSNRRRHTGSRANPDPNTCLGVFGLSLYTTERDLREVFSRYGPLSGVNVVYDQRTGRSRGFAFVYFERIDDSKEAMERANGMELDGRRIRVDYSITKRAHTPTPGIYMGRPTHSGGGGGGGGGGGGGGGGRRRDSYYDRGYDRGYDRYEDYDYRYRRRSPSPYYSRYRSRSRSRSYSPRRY

For assay [3], the target named is T1, CAPRIN1 (human (cDNA from HEK293T)). The source holds these as a separate data set.

Like-named read-outs stand apart in the source and are kept apart here. These are yes or no findings as the source states them, for the method shown. Binding seen in cells or lysates may run through a third protein. Some entries that bind do so weakly or less than the wild type.

In the case of METTL3 (from UniProt Q86U44 1-580), the binding entry in assay [1] and in assay [2] was “binds” throughout.

B1: METTL14 (protein, UniProt Q9HCE5 1-456)
chain: MDSRLQEIRERQKLRRQLLAQQLGAESADSIGAVLNSKDEQREIAETRETCRASYDTSAPNAKRKYLDEGETDEDKMEEYKDELEMQQDEENLPYEEEIYKDSSTFLKGTQSLNPHNDYCQHFVDTGHRPQNFIRDVGLADRFEEYPKLRELIRLKDELIAKSNTPPMYLQADIEAFDIRELTPKFDVILLEPPLEEYYRETGITANEKCWTWDDIMKLEIDEIAAPRSFIFLWCGSGEGLDLGRVCLRKWGYRRCEDICWIKTNKNNPGKTKTLDPKAVFQRTKEHCLMGIKGTVKRSTDGDFIHANVDIDLIITEEPEIGNIEKPVEIFHIIEHFCLGRRRLHLFGRDSTIRPGWLTVGPTLTNSNYNAETYASYFSAPNSYLTGCTEEIERLRPKSPPPKSKSDRGGGAPRGGGRGGTSAGRGRERNRSNFRGERGGFRGGRGGAHRGGFPPR
B1: the binding result in assay [3] is on record as “binds”.
